Measured values taken from PMC8256295.
These are yes or no findings as the source states them, for the method shown. Binding seen in cells or lysates may run through a third protein. Some binding calls cover weakened binding; strength is not graded here.

Target: T1, transforming growth factor β-activated kinase 1 (TAK1) (plasmid-expressed in HEK293T cells) (UniProt O43318)
T1 sequence: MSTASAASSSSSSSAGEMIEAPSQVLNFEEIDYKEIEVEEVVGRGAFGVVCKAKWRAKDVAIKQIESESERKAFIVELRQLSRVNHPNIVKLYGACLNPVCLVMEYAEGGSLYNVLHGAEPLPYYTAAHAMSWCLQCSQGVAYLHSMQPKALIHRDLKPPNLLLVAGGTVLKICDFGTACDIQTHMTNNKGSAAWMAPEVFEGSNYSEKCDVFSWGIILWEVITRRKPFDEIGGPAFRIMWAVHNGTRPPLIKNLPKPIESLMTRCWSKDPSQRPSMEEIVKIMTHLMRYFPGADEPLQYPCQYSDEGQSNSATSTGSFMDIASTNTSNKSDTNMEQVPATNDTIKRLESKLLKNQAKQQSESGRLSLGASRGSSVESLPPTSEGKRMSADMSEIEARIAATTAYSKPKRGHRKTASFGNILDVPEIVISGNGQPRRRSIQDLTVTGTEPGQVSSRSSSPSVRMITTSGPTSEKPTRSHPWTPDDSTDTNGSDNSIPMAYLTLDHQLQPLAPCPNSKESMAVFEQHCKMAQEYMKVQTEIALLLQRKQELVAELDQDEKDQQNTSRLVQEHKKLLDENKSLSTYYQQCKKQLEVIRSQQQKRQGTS
Experiment: co-IP; HEK293T cells transiently transfected for 48 h; lysates incubated with anti-Flag M2 Affinity Gel and anti-GFP agarose beads at 4°C overnight; immunoblot

B1: Galectin-9(226–355) (domain or fragment, UniProt O00182 226-355)
chain: PFITTILGGLYPSKSILLSGTVLPSAQRFHINLCSGNHIAFHLNPRFDENAVVRNTQIDNSWGSEERSLPRKMPFVRGQSFSVWILCEAHCLKVAVDGQHLFEYYHRLRNLPTINRLEVGGDIQLTHVQT
For B1, the binding was “binds”.
